These are yes or no findings as the source states them, for the method shown. Some results given as binding are weak or reduced against the parent protein; the word gives no strength. For part of these data: Sequences can lack the tags named with a protein.
B1: MBP fusion 463 (H2C-3aa-H2C) (protein, not shown: large carriers; small tags and cut ends)
chain: NNNNLGIEGRISEFIEGRAQPAMAFHENFYDWFVRQVSGGSFHENFYDWFVRQVSAAAGAPVPYPDPLEPRAA
B2: MBP fusion 436 (H2C-9aa-H2C) (protein, not shown: large carriers; small tags and cut ends)
chain: NNNNLGIEGRISEFIEGRAQPAMAFHENFYDWFVRQVSGGSGGSGGSFHENFYDWFVRQVSAAAGAPVPYPDPLEPRAA

Amino acid sequences for entries named in this document (tags omitted). A change or cut given only in a name is not applied to a line headed by its entry. Residues count along the entry.
UniProt P08069, residues 31-935: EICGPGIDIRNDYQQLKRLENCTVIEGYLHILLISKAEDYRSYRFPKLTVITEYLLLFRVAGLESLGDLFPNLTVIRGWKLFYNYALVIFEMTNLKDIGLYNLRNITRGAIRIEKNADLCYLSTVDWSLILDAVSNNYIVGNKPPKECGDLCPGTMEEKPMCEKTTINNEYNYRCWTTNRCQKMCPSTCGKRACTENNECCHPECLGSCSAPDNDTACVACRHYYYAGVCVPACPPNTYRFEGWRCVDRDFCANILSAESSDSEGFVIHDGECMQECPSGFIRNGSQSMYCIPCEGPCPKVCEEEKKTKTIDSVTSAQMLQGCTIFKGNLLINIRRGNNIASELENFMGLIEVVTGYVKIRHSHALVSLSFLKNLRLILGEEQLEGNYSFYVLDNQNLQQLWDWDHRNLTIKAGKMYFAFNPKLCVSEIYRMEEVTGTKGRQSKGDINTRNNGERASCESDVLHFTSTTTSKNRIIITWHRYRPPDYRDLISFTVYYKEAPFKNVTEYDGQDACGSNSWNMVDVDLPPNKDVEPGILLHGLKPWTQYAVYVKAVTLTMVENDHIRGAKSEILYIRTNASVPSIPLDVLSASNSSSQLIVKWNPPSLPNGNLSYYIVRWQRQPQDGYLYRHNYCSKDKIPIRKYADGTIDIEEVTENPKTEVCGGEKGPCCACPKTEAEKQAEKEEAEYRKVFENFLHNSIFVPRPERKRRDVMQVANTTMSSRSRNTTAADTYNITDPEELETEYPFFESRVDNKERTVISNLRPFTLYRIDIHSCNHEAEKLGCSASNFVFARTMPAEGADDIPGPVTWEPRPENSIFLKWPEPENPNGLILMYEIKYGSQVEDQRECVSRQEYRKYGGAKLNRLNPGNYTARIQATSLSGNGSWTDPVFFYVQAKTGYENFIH
UniProt P06213, residues 28-956: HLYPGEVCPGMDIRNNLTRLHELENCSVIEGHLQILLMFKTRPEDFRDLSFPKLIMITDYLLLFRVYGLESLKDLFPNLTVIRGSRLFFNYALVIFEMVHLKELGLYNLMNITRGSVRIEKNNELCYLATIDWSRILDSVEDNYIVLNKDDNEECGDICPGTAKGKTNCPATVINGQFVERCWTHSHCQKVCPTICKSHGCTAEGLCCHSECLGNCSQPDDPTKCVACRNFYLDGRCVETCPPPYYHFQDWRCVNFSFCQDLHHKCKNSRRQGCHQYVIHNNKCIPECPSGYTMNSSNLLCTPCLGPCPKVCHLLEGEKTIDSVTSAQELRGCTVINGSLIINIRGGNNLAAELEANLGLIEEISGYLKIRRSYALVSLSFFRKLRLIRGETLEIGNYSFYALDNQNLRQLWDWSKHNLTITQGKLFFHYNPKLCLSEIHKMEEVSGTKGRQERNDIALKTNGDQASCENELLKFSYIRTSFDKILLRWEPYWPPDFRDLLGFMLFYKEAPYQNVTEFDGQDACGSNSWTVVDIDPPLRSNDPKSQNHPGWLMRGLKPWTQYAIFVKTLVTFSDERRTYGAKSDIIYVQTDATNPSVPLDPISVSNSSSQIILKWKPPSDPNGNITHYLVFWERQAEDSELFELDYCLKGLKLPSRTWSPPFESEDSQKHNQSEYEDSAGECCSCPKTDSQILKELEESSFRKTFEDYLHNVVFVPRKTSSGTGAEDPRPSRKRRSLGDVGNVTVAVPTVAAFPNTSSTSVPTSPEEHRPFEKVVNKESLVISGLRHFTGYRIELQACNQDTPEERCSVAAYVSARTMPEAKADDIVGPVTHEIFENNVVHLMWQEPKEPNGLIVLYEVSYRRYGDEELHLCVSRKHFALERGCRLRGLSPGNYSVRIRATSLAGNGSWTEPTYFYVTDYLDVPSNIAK

What follows are binders tested against Soluble IGF-1R (R&D Systems, Cat. # 391-GR/CF); recombinant human IGF-1R (human) (UniProt P08069) (assay: phage competition ELISA on coated IGF-1R).

binding, binds:
LDQERAWLWCEISGRGCLSGGSGGSGSLDESFYDWFERQLGKK [D815-6L-RP9]

What follows are binders tested against Insulin receptor prepared according to Bass et al., 1996: soluble human insulin receptor-immunoglobulin heavy chain chimera (human) (UniProt P06213) (assay: BIAcore competition (FIG. 29), MBP fusion).

binding, binds:
B1
B2

Each binder was assayed against Insulin receptor prepared according to Bass et al., 1996: soluble human insulin receptor-immunoglobulin heavy chain chimera (human) (UniProt P06213) (assay: FP competition against FITC-RP9 on sIR-Fc).

binding, binds:
PPWGARFYDAIEQLVFDNL [RP4]
SQAGSAFYAWFDQVLRTV [RP15]
FHENFYDWFVQRVSKK [H2C (as listed in Tables 9, 21 and 22: …)]
DYKDFYDAIDQLVRGSARAGGTRD [20E2]
GSLDESFYDWFERQLG [RP9 (…, as listed for the IGF-1R assays)]
GIISQSCPESFYDWFAGQVSDPWWCW [G33]
